# Reference: PMC8741891
# Sequences of proteins named here, by UniProt entry; tags and fusion partners are left off. Residues count along the entry.
# UniProt P01556, residues 22-124: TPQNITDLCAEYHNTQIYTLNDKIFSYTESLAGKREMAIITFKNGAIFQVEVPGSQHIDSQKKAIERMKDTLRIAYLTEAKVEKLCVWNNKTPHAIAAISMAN
# UniProt P01555, residues 19-258: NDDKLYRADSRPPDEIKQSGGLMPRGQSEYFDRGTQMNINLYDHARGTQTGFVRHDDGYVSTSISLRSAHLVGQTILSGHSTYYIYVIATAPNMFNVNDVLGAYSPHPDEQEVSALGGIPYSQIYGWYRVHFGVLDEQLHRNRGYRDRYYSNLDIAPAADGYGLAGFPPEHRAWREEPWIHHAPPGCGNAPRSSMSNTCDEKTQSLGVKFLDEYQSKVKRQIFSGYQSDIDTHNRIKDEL
# Results are given in words; binding and its absence hold for the method and conditions named. Some entries that bind do so weakly or less than the wild type.
# Target: Cholera toxin B pentamer (UniProt P01556)
# Experiment: ELISA; both purified
substance,measurement,value
Cholera toxin A subunit (from UniProt P01555 19-258),binding,binds
